In article PMC4585773, “The C-terminus hot spot region helps in the fibril formation of bacteriophage-associated hyaluronate lyase (HylP2)” (Scientific Reports, 2015):
No constants are given. Whether binding was seen depends on the method and setting.

B1: bacteriophage-associated hyaluronate lyase HylP (enzyme, UniProt P15316 1-371)
chain: MTENIPLRVQFKRMSADEWARSDVILLEGEIGFETDTGFAKFGDGQNTFSKLKYLTGPKGPKGDTGLQGKTGGTGPRGPAGKPGTTDYDQLQNKPDLGAFAQKEETNSKITKLESSKADKSAVYSKAESKIELDKKLSLTGGIVTGQLQFKPNKSGIKPSSSVGGAINIDMSKSEGAAMVMYTNKDTTDGPLMILRSDKDTFDQSAQFVDYSGKTNAVNIVMRQPSAPNFSSALNITSANEGGSAMQIRGVEKALGTLKITHENPNVEAKYDENAAALSIDIVKKQKGGKGTAAQGIYINSTSGTAGKMLRIRNKNEDKFYVGPDGGFHSGANSTVAGNLTVKDPTSGKHAATKDYVDEKIAELKKLILKK

How the values were obtained:
[1] = target: HylP2_(V147A) (Streptococcus pyogenes bacteriophage) (UniProt Q54699); test: thioflavin T fluorescence + Congo red absorbance; 5 uM protein dialysed at pH 5 (10 mM CGH buffer), 10 uM dye, 25 °C; step: the native enzyme to fibrils; no seeds; both purified
[2] = target: HylP2_(V147A) (Streptococcus pyogenes bacteriophage) (UniProt Q54699); test: SEC; Superdex 200 HR 10/300, 25 °C, pH 5, 0.3 ml/min; step: the native enzyme to high molecular weight aggregates (void volume), compared with pH 7; no seeds; both purified
[3] = target: HylP2_(V147A) (Streptococcus pyogenes bacteriophage) (UniProt Q54699); test: ANS fluorescence kinetics; ANS fluorescence at 465 nm against time, seeded with preformed HylP2 fibrils; step: the native enzyme to fibrils; both purified
[4] = target: HylP2_(V147A) (Streptococcus pyogenes bacteriophage) (UniProt Q54699); test: thioflavin T fluorescence kinetics; pH 5, 5 uM protein, 10 uM ThT, emission at 480 nm against time, seeded with preformed HylP2 fibrils; step: the native enzyme to fibrils; both purified
[5] = target: bacteriophage-associated hyaluronate lyase HylP (Streptococcus pyogenes bacteriophage) (UniProt P15316); test: ANS fluorescence kinetics; ANS fluorescence at 465 nm against time, seeded with preformed HylP2 fibrils; step: the native enzyme to fibrils; both purified
[6] = target: bacteriophage-associated hyaluronate lyase HylP (Streptococcus pyogenes bacteriophage) (UniProt P15316); test: thioflavin T fluorescence kinetics; pH 5, 5 uM protein, 10 uM ThT, emission at 480 nm against time, seeded with preformed HylP2 fibrils; step: the native enzyme to fibrils; both purified
[7] = target: bacteriophage-associated hyaluronate lyase HylP (Streptococcus pyogenes bacteriophage) (UniProt P15316); test: thioflavin T fluorescence + Congo red absorbance; 5 uM protein dialysed at pH 5 (10 mM CGH buffer), 10 uM dye, 25 °C; step: the native enzyme to fibrils; no seeds; both purified
[8] = target: bacteriophage-associated hyaluronate lyase HylP (Streptococcus pyogenes bacteriophage) (UniProt P15316); test: SEC; Superdex 200 HR 10/300, 25 °C, pH 5, 0.3 ml/min; step: the native enzyme to high molecular weight aggregates (void volume), compared with pH 7; no seeds; both purified

Row | Molecule | binding [1] | binding [2] | binding [3] | binding [4] | binding [5] | binding [6] | binding [7] | binding [8]
1 | HylP2_(V147A) (from UniProt Q54699 1-337) (enzyme) | no binding (tested: 5 uM) | no binding | no binding | no binding (tested: 5 uM) | – | – | – | –
2 | B1 | – | – | – | – | no binding | no binding (tested: 5 uM) | no binding (tested: 5 uM) | no binding
